Laboratory results taken from PMC7872283.
Results are given in words; binding and its absence hold for the method and conditions named. Binding seen in cells or lysates may run through a third protein. Binding calls can cover weak binding; strength is not graded here. Sequences can lack the tags named with a protein.

Biological target: T1, FLAG-tagged checkpoint with FHA and RING finger domains (CHFR) (UniProt Q96EP1)
T1 sequence: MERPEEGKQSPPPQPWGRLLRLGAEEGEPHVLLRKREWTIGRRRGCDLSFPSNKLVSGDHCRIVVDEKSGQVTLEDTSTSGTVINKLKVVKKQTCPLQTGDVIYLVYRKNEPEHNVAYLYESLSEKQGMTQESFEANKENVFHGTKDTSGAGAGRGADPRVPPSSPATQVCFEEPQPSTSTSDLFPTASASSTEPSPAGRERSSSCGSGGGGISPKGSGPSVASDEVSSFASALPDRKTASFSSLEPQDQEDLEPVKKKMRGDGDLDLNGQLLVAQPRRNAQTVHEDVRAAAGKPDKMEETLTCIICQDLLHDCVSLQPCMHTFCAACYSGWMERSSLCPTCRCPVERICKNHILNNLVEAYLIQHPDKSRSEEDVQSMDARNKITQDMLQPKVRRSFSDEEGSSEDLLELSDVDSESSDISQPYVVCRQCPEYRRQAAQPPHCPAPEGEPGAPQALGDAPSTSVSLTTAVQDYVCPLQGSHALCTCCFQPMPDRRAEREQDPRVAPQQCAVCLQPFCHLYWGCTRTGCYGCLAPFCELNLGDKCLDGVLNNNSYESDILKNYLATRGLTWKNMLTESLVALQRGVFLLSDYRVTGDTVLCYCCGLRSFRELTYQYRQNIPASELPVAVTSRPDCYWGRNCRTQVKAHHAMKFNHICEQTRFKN
Experiment: co-IP

MYC-tagged PF-8 ΔC (domain or fragment)
binding: binds
